According to paper PMC5996148:
Values joined by “and” are separate entries in the source; they are usually repeats but may differ in a detail not shown here. Identical values can stand only once. This is one part of the list.

Columns and labels:
Assay in all cases: protein microarray (ProtoArray v5.0), streptavidin-Alexa Fluor 647
Conditions in all cases: 3'-biotin; 20 mM Tris (pH 7.5), 5 mM MgCl2, 100 mM KCl, 0.1% Tween-20, A/T-rich and random oligonucleotide blockers; temperature not stated; high values mean tight binding
MX1 (human) = test system: MX1 (human)
MXD1 (human) = test system: MXD1 (human)
MYCBP (human) = test system: MYCBP (human)
MYL1 (human) = test system: MYL1 (human)
MYLC2PL (human) = test system: MYLC2PL (human)
MYO1D (human) = test system: MYO1D (human)
Magmas (human) = test system: Magmas (human)
[1] = test system: Malate dehydrogenase, cytoplasmic (human)
Malcavernin (human) = test system: Malcavernin (human)
Mammaglobin-A (human) = test system: Mammaglobin-A (human)
[2] = test system: Mannose-6-phosphate receptor-binding protein 1 (human)
[3] = test system: Mediator of RNA polymerase II transcription subunit 22 (human)
[4] = test system: Mediator of RNA polymerase II transcription subunit 23 (human)
[5] = test system: Mediator of RNA polymerase II transcription subunit 4 (human)
[6] = test system: Melanocortin-2 receptor accessory protein (human)
[7] = test system: Melanoma-associated antigen 3 (human)
Melanoregulin (human) = test system: Melanoregulin (human)
[8] = test system: Membrane-associated progesterone receptor component 2 (human)
[9] = test system: Mesoderm induction early response protein 2 (human)
[10] = test system: Metal transporter CNNM3 (human)

GGGAGGCTGAGGCAGG [G4-1 biotinylated (PQS2)]
binding signal (MX1 (human)): -0.342 z-score | binding signal (MXD1 (human)): -0.304 z-score | binding signal (MYCBP (human)): -0.351 z-score | binding signal (MYL1 (human)): -0.311 z-score | binding signal (MYLC2PL (human)): -0.309 z-score | binding signal (MYO1D (human)): -0.246 z-score | binding signal (Magmas (human)): -0.303 z-score | binding signal [1]: -0.317 z-score | binding signal (Malcavernin (human)): -0.35 z-score | binding signal (Mammaglobin-A (human)): -0.357 z-score | binding signal [2]: -0.377 z-score | binding signal [3]: -0.359 z-score | binding signal [4]: -0.292 z-score | binding signal [5]: -0.325 z-score | binding signal [6]: -0.352 z-score | binding signal [7]: -0.37 z-score | binding signal (Melanoregulin (human)): -0.343 z-score and -0.336 z-score | binding signal [8]: -0.33 z-score | binding signal [9]: -0.316 z-score | binding signal [10]: -0.327 z-score
